Reference: US20260108546A1 (ELI LILLY AND COMPANY, priority 2024, published 2026)
Some results were stated once for a whole list of compounds, not compound by compound.

These compounds were tested against T1, hGIP-R (Homo sapiens, UniProt P48546) (assay: Functional hGIP-R Assay (cAMP formation, HTRF)). Details: cAMP formation in HEK-293 clonal cell lines expressing hGIP-R; 30 min at 37° C.; 0.1% bovine casein; relative EC50 vs. maximal response of human GIP (1-42) OH.
T1 construct: expressed in transfected cells; host or cells: HEK-293 clonal cell lines
T1 sequence (P48546 22-466): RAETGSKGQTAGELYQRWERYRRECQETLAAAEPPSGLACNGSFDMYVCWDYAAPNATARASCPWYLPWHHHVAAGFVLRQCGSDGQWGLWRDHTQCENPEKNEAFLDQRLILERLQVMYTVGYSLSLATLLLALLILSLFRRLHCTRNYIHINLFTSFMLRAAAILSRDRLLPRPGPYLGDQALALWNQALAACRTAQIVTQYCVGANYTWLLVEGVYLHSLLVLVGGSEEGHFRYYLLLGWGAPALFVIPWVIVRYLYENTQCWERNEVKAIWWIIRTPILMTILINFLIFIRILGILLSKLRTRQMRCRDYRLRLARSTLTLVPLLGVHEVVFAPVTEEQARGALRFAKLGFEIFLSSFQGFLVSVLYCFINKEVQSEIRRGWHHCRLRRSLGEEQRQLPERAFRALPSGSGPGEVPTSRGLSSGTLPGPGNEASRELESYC
Type: cell-based
Summary of the method: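 HEK-293 cells expressing hGIP-R were given a 20-point compound series in DMEM with 0.1% casein, 250 μM IBMX, 1% DMSO, 30 min at 37 °C. cAMP was read by HTRF against a standard curve, expressed as % of human GIP (1-42) OH maximum; EC50 and Emax came from four-parameter fits.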
With `CC(C)(Cn1cc(C(F)(F)F)cn1)NC(=O)[C@@H](Cc1cnc2ncccn12)NC(=O)[C@H]1C[C@@H]1c1ccc(NC(=O)C2CC(F)(F)C2)cc1` [Example 46, 3,3-Difluoro-N-(4-((1S,2S)-2-(((R)-3-(imidazo[1,2-a]pyrimidin-3-yl)-1-((2-methyl-1-(4-(trifluoromethyl)-1H-pyrazol-1-yl)propan-2-yl)amino)-1-oxopropan-2-yl)carbamoyl)cyclopropyl)phenyl) cyclobutane-1-carboxamide] the EC50 was at most 300 nM.
In the case of `Cc1cn2cc(-c3ccc([C@H]4C[C@@]45CCN([C@H](Cc4cnn(C(F)F)c4)C(=O)NC(C)(C)Cn4nc(C(F)(F)F)cc4-c4ccn(C6CC6)c(=O)c4)C5=O)c(Cl)c3)cnc2n1` [Example 165, (R)-2-((1S,3R)-1-(2-chloro-4-(2-methylimidazo[1,2-a]pyrimidin-6-yl)phenyl)-4-oxo-5-azaspiro[2.4]heptan-5-yl)-N-(1-(5-(1-cyclopropyl-2-oxo-1,2-dihydropyridin-4-yl)-3-(trifluoromethyl)-1H-pyrazol-1-yl)-2-methylpropan-2-yl)-3-(1-(difluoromethyl)-1H-pyrazol-4-yl)propanamide], the EC50 is reported as at most 300 nM.
`[2H]C([2H])([2H])n1cc(C[C@H](C(=O)NC(C)(C)Cn2nc(C(F)(F)F)cc2-c2cnc(C(C)(C)O)nc2)N2CC[C@@]3(C[C@@H]3c3ccc(-c4cnc5nc(C6CC6)cn5c4)nc3C)C2=O)cn1` [Example 186, (R)-2-((1R,3R)-1-(6-(2-cyclopropylimidazo[1,2-a]pyrimidin-6-yl)-2-methylpyridin-3-yl)-4-oxo-5-azaspiro[2.4]heptan-5-yl)-N-(1-(5-(2-(2-hydroxypropan-2-yl)pyrimidin-5-yl)-3-(trifluoromethyl)-1H-pyrazol-1-yl)-2-methylpropan-2-yl)-3-(1-(methyl-d3)-1H-pyrazol-4-yl)propanamide] showed an EC50 of at most 300 nM.
Compound `CC(C)(Cn1nc(C(F)(F)F)cc1-c1ccn(C2CC2)c(=O)c1)NC(=O)[C@@H](Cc1cnn(C(F)F)c1)N1CCC2(CC2c2ccc(-c3cnc4nc(C5CC5)cn4c3)nc2C2CC2)C1=O` (single isomer, unassigned) [Example 166] has an EC50 of at most 300 nM.
`CC(C)(Cn1cc(C(F)(F)F)cn1)NC(=O)[C@@H](Cc1cnc2ncccn12)NC(=O)[C@H]1C[C@@H]1c1ccc(-c2cnc3nc(C(F)F)cn3c2)cc1` [Example 79, (1S,2S)-2-(4-(2-(Difluoromethyl)imidazo[1,2-a]pyrimidin-6-yl)phenyl)-N-((R)-3-(imidazo[1,2-a]pyrimidin-3-yl)-1-((2-methyl-1-(4-(trifluoromethyl)-1H-pyrazol-1-yl)propan-2-yl)amino)-1-oxopropan-2-yl)cyclopropane-1-carboxamide] was tested, and the EC50 was at most 300 nM.
`Cc1cn2cc(-c3ccc(C4CC45CCN([C@H](Cc4cnn(C(F)F)c4)C(=O)NC(C)(C)Cn4nc(C(F)(F)F)cc4-c4ccc(=O)n(C)c4)C5=O)c(C(F)(F)F)c3)cnc2n1` (single isomer, unassigned; isomer 1) [Example 153] gave an EC50 of at most 300 nM.
`Cn1cc(-c2cc(C(F)(F)F)nn2CC(C)(C)NC(=O)[C@@H](Cc2cnn(C(F)F)c2)NC(=O)[C@H]2C[C@@H]2c2nc3cnn(C)c3cc2F)cc(F)c1=O` [Example 157, (1S,2S)-N-((R)-3-(1-(Difluoromethyl)-1H-pyrazol-4-yl)-1-((1-(5-(5-fluoro-1-methyl-6-oxo-1,6-dihydropyridin-3-yl)-3-(trifluoromethyl)-1H-pyrazol-1-yl)-2-methylpropan-2-yl)amino)-1-oxopropan-2-yl)-2-(6-fluoro-1-methyl-1H-pyrazolo[4,3-b]pyridin-5-yl)cyclopropane-1-carboxamide] gave an EC50 of at most 300 nM.
Compound `CN(C(=O)[C@H]1C[C@@H]1c1ccc(-c2cnc3nn(C)cc3c2)cc1)[C@H](Cc1cnn(C)c1)C(=O)NC(C)(C)Cn1nc(C(F)(F)F)cc1-c1ccc[nH]c1=O` [Example 32, (1S,2S)-N-Methyl-N-((R)-1-((2-methyl-1-(5-(2-oxo-1,2-dihydropyridin-3-yl)-3-(trifluoromethyl)-1H-pyrazol-1-yl)propan-2-yl)amino)-3-(1-methyl-1H-pyrazol-4-yl)-1-oxopropan-2-yl)-2-(4-(2-methyl-2H-pyrazolo[3,4-b]pyridin-5-yl)phenyl) cyclopropane-1-carboxamide] has an EC50 of at most 300 nM.
`Cn1cc(C[C@@H](NC(=O)C2CC2c2ccc(-c3cnc4nn(C)cc4c3)s2)C(=O)NC(C)(C)Cn2nc(C(F)(F)F)cc2Br)cn1` (single isomer, unassigned; isomer 2) [Example 7] was tested, and the EC50 was at most 300 nM.
`Cn1cc(C[C@@H](NC(=O)[C@H]2C[C@@H]2c2ccc(-c3cnc4nn(C)cc4c3)cc2)C(=O)NC(C)(C)Cn2nc(C(F)(F)F)cc2-c2ccn(C[C@H]3C[C@H](F)C3)n2)cn1` [Example 67, (1S,2S)-N—((R)-1-((1-(1-(((trans)-3-fluorocyclobutyl)methyl)-5′-(trifluoromethyl)-1H,2′H-[3,3′-bipyrazol]-2′-yl)-2-methylpropan-2-yl)amino)-3-(1-methyl-1H-pyrazol-4-yl)-1-oxopropan-2-yl)-2-(4-(2-methyl-2H-pyrazolo[3,4-b]pyridin-5-yl)phenyl)cyclopropane-1-carboxamide] gave an EC50 of at most 300 nM.
Compound `Cn1cc(-c2cc(C(F)(F)F)nn2CC(C)(C)NC(=O)[C@@H](Cc2cnn(C(F)F)c2)N2CCC3(CC3c3ccc4cnn(C)c4c3)C2=O)cc(F)c1=O` (single isomer, unassigned) [Example 184] has an EC50 of at most 300 nM.
`Cn1cc2cc(-c3ccc([C@H]4C[C@@]45CCN([C@H](Cc4cnn(C(F)F)c4)C(=O)NC4(Cn6nc(C(F)(F)F)cc6-c6cc(F)c(=O)n(C)c6)CC4)C5=O)c(F)c3)cnc2n1` (single isomer, unassigned; isomer 1) [Example 119] was tested, and the EC50 was at most 300 nM.
`Cn1cc(C[C@@H](NC(=O)[C@H]2C[C@@H]2c2ccc(-c3cnc4nccn4c3)cc2)C(=O)NC(C)(C)Cn2nc(C(F)(F)F)cc2-c2cnn(C)c2)cn1` [Example 28, (1S,2S)-2-(4-(Imidazo[1,2-a]pyrimidin-6-yl)phenyl)-N-((R)-1-((2-methyl-1-(1′-methyl-5-(trifluoromethyl)-1′H,2H-[3,4′-bipyrazol]-2-yl)propan-2-yl)amino)-3-(1-methyl-1H-pyrazol-4-yl)-1-oxopropan-2-yl)cyclopropane-1-carboxamide] gave an EC50 of at most 300 nM.
`Cn1cc2cc(-c3ccc([C@H]4C[C@@]45CCN([C@H](Cc4cnn(C(F)F)c4)C(=O)NC(C)(C)Cn4nc(C(F)(F)F)cc4-c4cccn(CC#N)c4=O)C5=O)cc3)cnc2n1` [Example 123, (R)-N-(1-(5-(1-(Cyanomethyl)-2-oxo-1,2-dihydropyridin-3-yl)-3-(trifluoromethyl)-1H-pyrazol-1-yl)-2-methylpropan-2-yl)-3-(1-(difluoromethyl)-1H-pyrazol-4-yl)-2-((1R,3R)-1-(4-(2-methyl-2H-pyrazolo[3,4-b]pyridin-5-yl)phenyl)-4-oxo-5-azaspiro[2.4]heptan-5-yl)propanamide] was tested, and the EC50 was at most 300 nM.
Work on `Cc1cn2cc(-c3ccc([C@H]4C[C@@]45CCN([C@H](Cc4cnn(C(F)F)c4)C(=O)NC(C)(C)Cn4nc(C(F)(F)F)cc4-c4ccc(=O)[nH]n4)C5=O)c(Cl)c3)cnc2n1` [Example 148, (R)-2-((1S,3R)-1-(2-Chloro-4-(2-methylimidazo[1,2-a]pyrimidin-6-yl)phenyl)-4-oxo-5-azaspiro[2.4]heptan-5-yl)-3-(1-(difluoromethyl)-1H-pyrazol-4-yl)-N-(2-methyl-1-(5-(6-oxo-1,6-dihydropyridazin-3-yl)-3-(trifluoromethyl)-1H-pyrazol-1-yl)propan-2-yl)propanamide] yielded an EC50 of at most 300 nM.
In the case of `COc1ncc(-c2ccc([C@H]3C[C@@]34CCN([C@H](Cc3cnn(C(F)F)c3)C(=O)NC(C)(C)Cn3nc(C(F)(F)F)cc3-c3ccn(C5CC5)c(=O)c3)C4=O)c(C)n2)cc1F` [Example 174, (R)-N-(1-(5-(1-cyclopropyl-2-oxo-1,2-dihydropyridin-4-yl)-3-(trifluoromethyl)-1H-pyrazol-1-yl)-2-methylpropan-2-yl)-3-(1-(difluoromethyl)-1H-pyrazol-4-yl)-2-((1R,3R)-1-(5′-fluoro-6′-methoxy-6-methyl-[2,3′-bipyridin]-5-yl)-4-oxo-5-azaspiro[2.4]heptan-5-yl)propanamide], the EC50 is reported as at most 300 nM.
`Cn1cc2cc(-c3ccc([C@H]4C[C@@]45CCN([C@H](Cc4cnn(C(F)F)c4)C(=O)NC(C)(C)Cn4nc(C(F)(F)F)cc4-c4cc(F)c6nccn6c4)C5=O)cc3)cnc2n1` [Example 131, (R)-3-(1-(Difluoromethyl)-1H-pyrazol-4-yl)-N-(1-(5-(8-fluoroimidazo[1,2-a]pyridin-6-yl)-3-(trifluoromethyl)-1H-pyrazol-1-yl)-2-methylpropan-2-yl)-2-((1R,3R)-1-(4-(2-methyl-2H-pyrazolo[3,4-b]pyridin-5-yl)phenyl)-4-oxo-5-azaspiro[2.4]heptan-5-yl)propanamide] showed an EC50 of at most 300 nM.
Work on `Cn1cc(C[C@@H](NC(=O)[C@H]2C[C@@H]2c2ccc(-c3cnc4nn(C)cc4c3)cc2)C(=O)NC(C)(C)Cn2nc(C(F)(F)F)cc2-c2cn[nH]n2)cn1` [Example 92, (1S,2S)-N—((R)-1-((1-(5-(2H-1,2,3-Triazol-4-yl)-3-(trifluoromethyl)-1H-pyrazol-1-yl)-2-methylpropan-2-yl)amino)-3-(1-methyl-1H-pyrazol-4-yl)-1-oxopropan-2-yl)-2-(4-(2-methyl-2H-pyrazolo[3,4-b]pyridin-5-yl)phenyl)cyclopropane-1-carboxamide] yielded an EC50 of at most 300 nM.
